Results published in paper PMC5966407.
Substitutions are numbered along the chain they refer to. Names and notes keep the numbering of the source. Results are given in words; binding and its absence hold for the method and conditions named. In cells and extracts the contact can be indirect. Some binding calls cover weakened binding; strength is not graded here.

By UniProt entry, the sequences of proteins in these tests, tags left out.
UniProt P22336: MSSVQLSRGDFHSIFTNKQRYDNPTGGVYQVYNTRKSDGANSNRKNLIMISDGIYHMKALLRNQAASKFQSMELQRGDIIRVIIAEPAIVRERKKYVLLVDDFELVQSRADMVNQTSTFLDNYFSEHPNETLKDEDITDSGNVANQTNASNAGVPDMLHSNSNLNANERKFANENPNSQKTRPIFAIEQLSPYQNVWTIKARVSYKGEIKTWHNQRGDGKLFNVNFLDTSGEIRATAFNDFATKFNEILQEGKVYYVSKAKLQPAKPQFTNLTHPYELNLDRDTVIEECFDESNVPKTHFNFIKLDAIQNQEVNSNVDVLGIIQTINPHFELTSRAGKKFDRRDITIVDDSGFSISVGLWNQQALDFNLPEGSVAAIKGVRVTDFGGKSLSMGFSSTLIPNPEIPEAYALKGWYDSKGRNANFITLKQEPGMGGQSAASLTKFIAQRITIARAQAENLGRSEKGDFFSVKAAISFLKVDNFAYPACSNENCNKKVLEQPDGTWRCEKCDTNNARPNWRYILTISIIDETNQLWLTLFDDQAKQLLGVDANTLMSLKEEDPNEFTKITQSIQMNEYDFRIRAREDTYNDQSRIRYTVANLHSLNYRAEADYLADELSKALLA
UniProt Q8IY92: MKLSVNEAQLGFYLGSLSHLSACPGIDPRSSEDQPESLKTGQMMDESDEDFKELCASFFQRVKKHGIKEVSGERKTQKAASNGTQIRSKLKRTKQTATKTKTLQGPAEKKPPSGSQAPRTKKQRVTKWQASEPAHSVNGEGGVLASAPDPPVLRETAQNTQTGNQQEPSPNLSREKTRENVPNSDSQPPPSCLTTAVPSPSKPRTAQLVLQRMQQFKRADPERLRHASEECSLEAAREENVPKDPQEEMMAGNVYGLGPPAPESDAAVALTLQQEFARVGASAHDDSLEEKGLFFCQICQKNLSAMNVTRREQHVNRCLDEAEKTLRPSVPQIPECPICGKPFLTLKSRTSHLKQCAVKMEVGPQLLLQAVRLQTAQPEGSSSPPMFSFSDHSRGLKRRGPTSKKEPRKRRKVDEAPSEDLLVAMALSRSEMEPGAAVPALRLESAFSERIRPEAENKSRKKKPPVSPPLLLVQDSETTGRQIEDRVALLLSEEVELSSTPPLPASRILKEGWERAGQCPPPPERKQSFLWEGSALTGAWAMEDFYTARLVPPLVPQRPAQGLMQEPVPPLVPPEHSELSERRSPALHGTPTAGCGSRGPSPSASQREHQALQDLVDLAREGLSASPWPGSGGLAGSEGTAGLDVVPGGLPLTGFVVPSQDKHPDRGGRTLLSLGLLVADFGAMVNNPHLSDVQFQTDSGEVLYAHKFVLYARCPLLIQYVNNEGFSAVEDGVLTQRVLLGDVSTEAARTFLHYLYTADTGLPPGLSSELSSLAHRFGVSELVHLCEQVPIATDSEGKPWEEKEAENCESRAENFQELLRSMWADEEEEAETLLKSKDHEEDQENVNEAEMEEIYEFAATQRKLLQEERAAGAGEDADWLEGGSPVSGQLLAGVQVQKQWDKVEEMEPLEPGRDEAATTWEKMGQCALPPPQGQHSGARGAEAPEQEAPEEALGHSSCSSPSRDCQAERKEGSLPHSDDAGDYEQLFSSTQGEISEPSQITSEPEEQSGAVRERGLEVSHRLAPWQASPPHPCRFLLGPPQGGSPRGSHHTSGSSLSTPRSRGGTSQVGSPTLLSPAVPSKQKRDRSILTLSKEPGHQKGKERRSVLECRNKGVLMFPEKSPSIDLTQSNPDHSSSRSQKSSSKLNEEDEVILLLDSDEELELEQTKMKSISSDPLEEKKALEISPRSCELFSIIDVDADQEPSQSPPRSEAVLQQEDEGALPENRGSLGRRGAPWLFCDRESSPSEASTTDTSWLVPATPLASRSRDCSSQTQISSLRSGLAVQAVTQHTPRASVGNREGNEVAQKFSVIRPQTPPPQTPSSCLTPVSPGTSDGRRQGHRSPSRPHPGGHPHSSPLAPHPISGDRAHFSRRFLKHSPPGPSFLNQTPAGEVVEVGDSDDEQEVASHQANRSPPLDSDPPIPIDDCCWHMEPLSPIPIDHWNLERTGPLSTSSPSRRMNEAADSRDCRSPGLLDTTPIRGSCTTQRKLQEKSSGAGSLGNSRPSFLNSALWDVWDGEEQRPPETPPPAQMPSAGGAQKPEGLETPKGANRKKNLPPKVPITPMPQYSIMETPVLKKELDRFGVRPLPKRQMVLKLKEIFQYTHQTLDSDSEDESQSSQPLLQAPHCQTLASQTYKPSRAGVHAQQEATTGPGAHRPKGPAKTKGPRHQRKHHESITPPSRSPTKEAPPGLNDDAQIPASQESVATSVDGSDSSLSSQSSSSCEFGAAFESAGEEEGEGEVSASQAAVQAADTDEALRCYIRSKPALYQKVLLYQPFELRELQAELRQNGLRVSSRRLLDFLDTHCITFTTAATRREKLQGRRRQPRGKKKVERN

Tests used:
[1] = target: Rpa1 (yeast), the large subunit of the replication protein A (RPA) complex (S. cerevisiae (endogenous in yeast cells)) (UniProt P22336); assay: co-IP; yeast lysate; C-terminal 3xHA tagged Rad1 variants with Rpa1; blots with anti-HA and anti-Rpa1; which antibody precipitated is not told
[2] = target: TAP-tagged Slx4 (S. cerevisiae) (UniProt Q12098); assay: co-IP; yeast lysate of cells expressing TAP-tagged Slx4 and plasmid-borne Rad1-3HA variants; IgG agarose beads; blot with anti-HA
[3] = target: RPA1 (endogenous, 293T) (human (endogenous in 293T)), P27694; assay: co-IP; 293T cells transfected with HA tagged XPF variants, 20 μM cisplatin for 2 h or mock; lysis buffer 20 mM Tris-HCl pH 7.2, 100 mM NaCl, 10% glycerol, 1 mM EDTA, 0.1% NP-40, 1% Triton X-100; IP with anti-RPA70 or anti-SLX4 and protein G-agarose; blot with anti-HA; details: remark: other sources report otherwise
[4] = target: SLX4 (endogenous, 293T) (human (endogenous in 293T)) (UniProt Q8IY92); assay: as above

B1: Rad1-3HA (protein, UniProt P06777 1-1100)
chain: MSQLFYQGDSDDELQEELTRQTTQASQSSKIKNEDEPDDSNHLNEVENEDSKVLDDDAVLYPLIPNEPDDIETSKPNINDIRPVDIQLTLPLPFQQKVVENSLITEDALIIMGKGLGLLDIVANLLHVLATPTSINGQLKRALVLVLNAKPIDNVRIKEALEELSWFSNTGKDDDDTAVESDDELFERPFNVVTADSLSIEKRRKLYISGGILSITSRILIVDLLSGIVHPNRVTGMLVLNADSLRHNSNESFILEIYRSKNTWGFIKAFSEAPETFVMEFSPLRTKMKELRLKNVLLWPRFRVEVSSCLNATNKTSHNKVIEVKVSLTNSMSQIQFGLMECLKKCIAELSRKNPELALDWWNMENVLDINFIRSIDSVMVPNWHRISYESKQLVKDIRFLRHLLKMLVTSDAVDFFGEIQLSLDANKPSVSRKYSESPWLLVDEAQLVISYAKKRIFYKNEYTLEENPKWEQLIHILHDISHERMTNHLQGPTLVACSDNLTCLELAKVLNASNKKRGVRQVLLNKLKWYRKQREETKKLVKEVQSQDTFPENATLNVSSTFSKEQVTTKRRRTRGASQVAAVEKLRNAGTNVDMEVVFEDHKLSEEIKKGSGDDLDDGQEENAANDSKIFEIQEQENEILIDDGDAEFDNGELEYVGDLPQHITTHFNKDLWAEHCNEYEYVDRQDEILISTFKSLNDNCSLQEMMPSYIIMFEPDISFIRQIEVYKAIVKDLQPKVYFMYYGESIEEQSHLTAIKREKDAFTKLIRENANLSHHFETNEDLSHYKNLAERKLKLSKLRKSNTRNAGGQQGFHNLTQDVVIVDTREFNASLPGLLYRYGIRVIPCMLTVGDYVITPDICLERKSISDLIGSLQNNRLANQCKKMLKYYAYPTLLIEFDEGQSFSLEPFSERRNYKNKDISTVHPISSKLSQDEIQLKLAKLVLRFPTLKIIWSSSPLQTVNIILELKLGREQPDPSNAVILGTNKVRSDFNSTAKGLKDGDNESKFKRLLNVPGVSKIDYFNLRKKIKSFNKLQKLSWNEINELINDEDLTDRIYYFLRTEKEEQEQESTDENLESPGKTTDDNALHDHHNDVPEAPV
binding [1]: binds
binding [2]: binds

B2: XPF-3xHA, Q92889 1-916 (protein)
chain: MESGQPARRIAMAPLLEYERQLVLELLDTDGLVVCARGLGADRLLYHFLQLHCHPACLVLVLNTQPAEEEYFINQLKIEGVEHLPRRVTNEITSNSRYEVYTQGGVIFATSRILVVDFLTDRIPSDLITGILVYRAHRIIESCQEAFILRLFRQKNKRGFIKAFTDNAVAFDTGFCHVERVMRNLFVRKLYLWPRFHVAVNSFLEQHKPEVVEIHVSMTPTMLAIQTAILDILNACLKELKCHNPSLEVEDLSLENAIGKPFDKTIRHYLDPLWHQLGAKTKSLVQDLKILRTLLQYLSQYDCVTFLNLLESLRATEKAFGQNSGWLFLDSSTSMFINARARVYHLPDAKMSKKEKISEKMEIKEGEETKKELVLESNPKWEALTEVLKEIEAENKESEALGGPGQVLICASDDRTCSQLRDYITLGAEAFLLRLYRKTFEKDSKAEEVWMKFRKEDSSKRIRKSHKRPKDPQNKERASTKERTLKKKKRKLTLTQMVGKPEELEEEGDVEEGYRREISSSPESCPEEIKHEEFDVNLSSDAAFGILKEPLTIIHPLLGCSDPYALTRVLHEVEPRYVVLYDAELTFVRQLEIYRASRPGKPLRVYFLIYGGSTEEQRYLTALRKEKEAFEKLIREKASMVVPEEREGRDETNLDLVRGTASADVSTDTRKAGGQEQNGTQQSIVVDMREFRSELPSLIHRRGIDIEPVTLEVGDYILTPEMCVERKSISDLIGSLNNGRLYSQCISMSRYYKRPVLLIEFDPSKPFSLTSRGALFQEISSNDISSKLTLLTLHFPRLRILWCPSPHATAELFEELKQSKPQPDAATALAITADSETLPESEKYNPGPQDFLLKMPGVNAKNCRSLMHHVKNIAELAALSQDELTSILGNAANAKQLYDFIHTSFAEVVSKGKGKK
binding [3]: binds

B3: XPF-3xHA (protein, UniProt Q92889 1-916)
chain: B2 chain
binding [4]: binds

B4: rad1-E349K-3HA (protein, UniProt P06777 1-1100)
chain: B1 chain with E349K
binding [2]: binds
